# Measurements from article PMC9456277.
# Legend:
# [1] = biological target: T1, GST-tagged N-terminal ICD of TRPC4 (mouse) (UniProt Q9QUQ5); experiment: ELISA; N-terminal TRPC-ICDs or TRPC1 peptide substrate-coated (10 µg/mL in PBS, 4 °C overnight), increasing concentrations of NCAM-ICDs or CHL1-ICD for 1.5 h at room temperature; detection with NCAM antibody P61 or GTX133217 or CHL1 antibody C-18; both purified
# T1 sequence: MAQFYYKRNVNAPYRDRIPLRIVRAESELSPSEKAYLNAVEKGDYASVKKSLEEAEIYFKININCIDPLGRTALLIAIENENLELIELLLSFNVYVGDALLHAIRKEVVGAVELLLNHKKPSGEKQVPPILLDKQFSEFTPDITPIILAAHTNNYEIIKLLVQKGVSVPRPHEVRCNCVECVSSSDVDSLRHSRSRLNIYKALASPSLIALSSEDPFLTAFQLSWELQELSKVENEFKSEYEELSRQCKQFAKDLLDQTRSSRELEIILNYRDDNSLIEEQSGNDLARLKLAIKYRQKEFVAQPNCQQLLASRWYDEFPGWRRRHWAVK
# [2] = biological target: T2, GST-tagged N-terminal ICD of TRPC5 (mouse) (UniProt Q9QX29); experiment: as above
# T2 sequence: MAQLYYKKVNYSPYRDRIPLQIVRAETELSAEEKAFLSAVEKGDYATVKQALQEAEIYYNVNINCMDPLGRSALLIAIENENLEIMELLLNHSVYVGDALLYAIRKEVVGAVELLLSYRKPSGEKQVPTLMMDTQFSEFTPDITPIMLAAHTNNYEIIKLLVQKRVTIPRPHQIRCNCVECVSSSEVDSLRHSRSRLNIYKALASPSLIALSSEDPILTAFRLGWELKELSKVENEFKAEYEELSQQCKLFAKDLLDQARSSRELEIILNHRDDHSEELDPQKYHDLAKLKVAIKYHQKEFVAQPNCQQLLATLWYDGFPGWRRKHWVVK
binding [1],binding [2],Substance
no binding,no binding,His-tagged NCAM140-ICD with deletion of the C-terminal part (rat) (domain or fragment)
no binding,no binding,His-tagged NCAM140-ICD with deletion of the N-terminal part (rat) (domain or fragment)

# Results are given in words; binding and its absence hold for the method and conditions named. Where a sequence is shown, tags or fusion partners need not be part of it.
